Results from publication PMC7819943, “Rice protein-binding microarrays: a tool to detect cis-acting elements near promoter regions in rice”.
The list shows a part of the results.

By UniProt entry, the sequences of proteins in these tests, tags left out.
UniProt Q0JBA9, entry or part of it: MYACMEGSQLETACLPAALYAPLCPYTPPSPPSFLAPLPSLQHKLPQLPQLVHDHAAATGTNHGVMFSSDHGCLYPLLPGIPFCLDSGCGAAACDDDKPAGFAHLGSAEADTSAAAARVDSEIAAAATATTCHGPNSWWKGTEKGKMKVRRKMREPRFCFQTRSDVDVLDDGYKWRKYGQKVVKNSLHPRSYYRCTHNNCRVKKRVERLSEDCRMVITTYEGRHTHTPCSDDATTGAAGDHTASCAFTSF

Biological target: OsWRKY34 (Oryza sativa, UniProt Q0JBA9 1-250)
Experiment: protein-binding microarray (RPBM); PBS, 2% BSA, 51.3 ng/ul salmon testes DNA, 50 uM zinc acetate, 200 nM TF, 25 C, 1 h; high values mean tight binding
Conditions: protein: recombinant; tags: N-terminal polyhistidine and DsRed monomer fusion (pET32a); label: CyDye5-dUTP incorporated in the synthesized complementary strand; 3' TTTTT single-stranded linker to array surface; dsDNA, one strand shown
How it was run: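 Per-feature fluorescence intensity (arbitrary units), read on an Axon 4000B scanner, is the binding signal. Transcription factors carrying an N-terminal polyhistidine tag and DsRed fusion were expressed in E. coli BL21-CodonPlus and purified on Ni–NTA. A custom Agilent array, made double-stranded by primer extension with Cy5-dUTP and blocked with 2% BSA, was incubated with 200 nM protein in PBS, 2% BSA, salmon testes DNA and 50 µM zinc acetate at 25 °C for 1 h and then washed.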

Sequence	binding signal
CACTAATTCCATTTCGCCGTTACGCCAAACTTGGACAAACCGGAGTCACCTAGTGCAG	9900 fluorescence intensity (a.u.)
ATATGGCAAGGTTGGATCAGTCATTTCGGCATGGCCATTTCGGAGTCACCTAGTGCAG	8080 fluorescence intensity (a.u.)
CTCTCTCTCTCTCTATCCATCATCTCCTCCTCTGCTTTTTCGGAGTCACCTAGTGCAG	10200 fluorescence intensity (a.u.)
ACCCCGCTCGCCGCGGCCGACCCGCTCGTCCACGACCTCCCGGAGTCACCTAGTGCAG	8260 fluorescence intensity (a.u.)
GGTTTTGTGTGTTTTATGTTACGGAAGTACGGAACCAAGACGGAGTCACCTAGTGCAG	9300 fluorescence intensity (a.u.)
GTTAACCATATTTTTTTACTGTTTAAACATTTTTATTTTTCGGAGTCACCTAGTGCAG	10300 fluorescence intensity (a.u.)
CAGTGCTAATCTGCGCTTCTCTTATTCTCATGTGGTGTGACGGAGTCACCTAGTGCAG	8880 fluorescence intensity (a.u.)
CAGGGTTTGGATGTGGATATGGTTTCTTCAAGGGTATTTTCGGAGTCACCTAGTGCAG	16400 fluorescence intensity (a.u.)
GCAATCGTCTAAAATATGCATGTACATATGATGTCCTAGTCGGAGTCACCTAGTGCAG	8660 fluorescence intensity (a.u.)
CAACTATGGGTTTTTCCTACTGCCGATTATTGAGCTTATCCGGAGTCACCTAGTGCAG	8900 fluorescence intensity (a.u.)
CTACTCCATCTGCTGTTGCTGTTGCTGTTGCCCATCGTCTCGGAGTCACCTAGTGCAG	14000 fluorescence intensity (a.u.)
CGTTATTTGTATTTTAGCCAGTTTTTAAGTTCGTTCGCTTCGGAGTCACCTAGTGCAG	8020 fluorescence intensity (a.u.)
GGTCCGGTCGGCCGTTAATTAATATACTTATACGTACTCCCGGAGTCACCTAGTGCAG	8260 fluorescence intensity (a.u.)
AACACCCCAACAAGTTTGTTTGCTTGCTCGCACGCTTGCTCGGAGTCACCTAGTGCAG	8790 fluorescence intensity (a.u.)
CCACTACCAGTCCATTTCCACTCTCGGCGTCGGGGCCCCACGGAGTCACCTAGTGCAG	9430 fluorescence intensity (a.u.)
AACGTCTTCACCTGTTGCAATGCACGAGCATTTTTTTCTACGGAGTCACCTAGTGCAG	11800 fluorescence intensity (a.u.)
GCACCTGGGACCGCGTGCGTGCGGGCGGGCGGGCGGGCGGCGGAGTCACCTAGTGCAG	13800 fluorescence intensity (a.u.)
ATGTTCTTATTATTCTAATTAATTTTGATTTTCCTACATACGGAGTCACCTAGTGCAG	8540 fluorescence intensity (a.u.)
TCCGCTTCTGCTATCTCTCGTCACTCTTCAGTCTTCACCTCGGAGTCACCTAGTGCAG	8050 fluorescence intensity (a.u.)
GGTTGTTTGCATTAGTCTATCTAGGTTGGTATGAGATCTTCGGAGTCACCTAGTGCAG	9120 fluorescence intensity (a.u.)
AGTATTTATTTAGGGGTTTCTTCGTCACTTTTTTGTAAAACGGAGTCACCTAGTGCAG	10400 fluorescence intensity (a.u.)

Given with bars between the fields: part of the list above.
Sequence | binding signal
CAACTATGGGTTTTTCCTACTGCCGATTATTGAGCTTATCCGGAGTCACCTAGTGCAG | 8900 fluorescence intensity (a.u.)
CTACTCCATCTGCTGTTGCTGTTGCTGTTGCCCATCGTCTCGGAGTCACCTAGTGCAG | 14000 fluorescence intensity (a.u.)
CGTTATTTGTATTTTAGCCAGTTTTTAAGTTCGTTCGCTTCGGAGTCACCTAGTGCAG | 8020 fluorescence intensity (a.u.)
GGTCCGGTCGGCCGTTAATTAATATACTTATACGTACTCCCGGAGTCACCTAGTGCAG | 8260 fluorescence intensity (a.u.)

Next part:

Sequence	binding signal
ACCATATATTTCGACTACTCTCTTTATAATCTATTCTTATCGGAGTCACCTAGTGCAG	12100 fluorescence intensity (a.u.)
CTCCGTAAGCTCCAGCCCACTGCCACCGCTGCTCCAGCTACGGAGTCACCTAGTGCAG	8250 fluorescence intensity (a.u.)
CACCACACAGCCTTTTTAGTGCCCTGATTATATAATCTTCCGGAGTCACCTAGTGCAG	11700 fluorescence intensity (a.u.)
CGAAATTCATTCAGCAGAACAGTCAATACCGTTTGTTTCCCGGAGTCACCTAGTGCAG	9330 fluorescence intensity (a.u.)
CTCCACGCCATGCTCTGCTTTTCTTCAGCTTTTTCTTGGGCGGAGTCACCTAGTGCAG	8320 fluorescence intensity (a.u.)
GGCCGAAACTTCTTTCTTTCTTCCGTTTGGCCCAATCCTTCGGAGTCACCTAGTGCAG	9290 fluorescence intensity (a.u.)
AAAATCATGCTTTTCTCTCTACTTTTCTTTTTCTTTTTTCCGGAGTCACCTAGTGCAG	9200 fluorescence intensity (a.u.)
GTTGTGTTTAGCCGCGGTAGTTTTCTAAGCTTCAGTTTTCCGGAGTCACCTAGTGCAG	10800 fluorescence intensity (a.u.)
GTCATAATTTTAAAAGTTTAGGGGTTGATTCGGTCCAAATCGGAGTCACCTAGTGCAG	8420 fluorescence intensity (a.u.)
TGTTTTGACGGGCCCGGAATTGCTTTTGCTGCCTAGGCACCGGAGTCACCTAGTGCAG	9370 fluorescence intensity (a.u.)
ATTCCATCGTATATTACCCATGAACATGCATAGGTGAATCCGGAGTCACCTAGTGCAG	8780 fluorescence intensity (a.u.)
AAGACTTTCACCTTGGAGTCCTATCCAACCATATGCCACCCGGAGTCACCTAGTGCAG	10000 fluorescence intensity (a.u.)
TTGAGATGTGTGCTCAGACAGTCACAACACCACGTTGACCCGGAGTCACCTAGTGCAG	9890 fluorescence intensity (a.u.)
GCGGGTGTGGCATTGTGGGTAATCTCGGCCGTTCAAATATCGGAGTCACCTAGTGCAG	17300 fluorescence intensity (a.u.)
CCGCGTTGTGTTTCGCTTTTTGGCAGTTCGATCGATCTTACGGAGTCACCTAGTGCAG	8240 fluorescence intensity (a.u.)
AGTTCGTGTGCTTCTCTCATTTGTTCCTTGATATATTTGCCGGAGTCACCTAGTGCAG	10300 fluorescence intensity (a.u.)
TTTGTCATATCAAAATGCTTTTGACTTTTGATTATTCTTCCGGAGTCACCTAGTGCAG	9800 fluorescence intensity (a.u.)
GTTTTTTCTTGCCAAGTATGGTACCATGTTCTGTCTCCTCCGGAGTCACCTAGTGCAG	8760 fluorescence intensity (a.u.)
GTGTTGGTCTTTGATGTAGTCGTACCACTGCTGTAAAAAACGGAGTCACCTAGTGCAG	8300 fluorescence intensity (a.u.)
CTGCTAACCACAATTCCCTCGTACCATCACATGGCAAACACGGAGTCACCTAGTGCAG	8450 fluorescence intensity (a.u.)
CGCGTGGACCCCACCTGCAGCCACCCACCCTCCACCTTCCCGGAGTCACCTAGTGCAG	8080 fluorescence intensity (a.u.)

Sequence	binding signal
ACAGCCATGTTCCCACGTCGCGCCTGCTTCCGGCGGAAGTCGGAGTCACCTAGTGCAG	9340 fluorescence intensity (a.u.)
CATGCGGCCTGGTGATATAAGTACATTAGTTGATTCTCCCCGGAGTCACCTAGTGCAG	8940 fluorescence intensity (a.u.)
GTTTTTCCTGTGGTCCAATCAAACGGCCATTCCTGTGTTTCGGAGTCACCTAGTGCAG	14300 fluorescence intensity (a.u.)
CCAGCAGCAGTCCACCACCCCGCCGCTTCCCCGCAAAAACCGGAGTCACCTAGTGCAG	8300 fluorescence intensity (a.u.)
ACAAATTAGTTAAACTTGCACCTTTCTTGTTGCTACCTCACGGAGTCACCTAGTGCAG	8660 fluorescence intensity (a.u.)
GAGTAGAGTATTAATTTCACACCCTCACTTCTGCCACATTCGGAGTCACCTAGTGCAG	8250 fluorescence intensity (a.u.)
AGATGACGCCGTTGACTTTTTATCACATGTTTAACCATTCCGGAGTCACCTAGTGCAG	42300 fluorescence intensity (a.u.)
ATTTTTTTTCCCAAATCCATTTATTTTCCTCTCTTCTCTCCGGAGTCACCTAGTGCAG	9970 fluorescence intensity (a.u.)
GGTTGGGGCTACGTGTTTGTGTTCTCGTATAAGGGTCGTGCGGAGTCACCTAGTGCAG	13800 fluorescence intensity (a.u.)
CAACTTGGTTCAAACGGGGTTTGGATTGTTGTGGTTCATTCGGAGTCACCTAGTGCAG	11300 fluorescence intensity (a.u.)
TTAGCACATGTTTGACCGTTCGTCTTATTCAAAAACTTTTCGGAGTCACCTAGTGCAG	12600 fluorescence intensity (a.u.)
AGGTTGGGTATAAAATATCGTCGCGGATCACAAAATATATCGGAGTCACCTAGTGCAG	9230 fluorescence intensity (a.u.)
GCTTCTTAGTTCTCAGCCACACCGCAAGCAGAAACGTGCACGGAGTCACCTAGTGCAG	8820 fluorescence intensity (a.u.)
AGGACCATCTGGATATGTTTGTGTTTTCTGGATTTCTGAACGGAGTCACCTAGTGCAG	9520 fluorescence intensity (a.u.)
ATAAGTTAATTTAGTATGGGATGCGACATCTGTTAGTACTCGGAGTCACCTAGTGCAG	8160 fluorescence intensity (a.u.)
GATAAGCTCAACCCATCGATTCCGCTAAGTCAATCCTACCCGGAGTCACCTAGTGCAG	8680 fluorescence intensity (a.u.)
GGGTTGCCGCTACAGGCTCAGCTCTCCGTCGCTCCGCCTGCGGAGTCACCTAGTGCAG	9450 fluorescence intensity (a.u.)
TTTGGATTGATCATGGTCATTTGTACTTTTGTAGTCTTTACGGAGTCACCTAGTGCAG	8570 fluorescence intensity (a.u.)
CCTACACACGTAAACTCTTAACTTTTTTTTTCCAAACTACCGGAGTCACCTAGTGCAG	8410 fluorescence intensity (a.u.)
GCCCGTCTTATAATAATTTTTTTTATATTTAGTACTTTTACGGAGTCACCTAGTGCAG	9530 fluorescence intensity (a.u.)
GTGTGGTCAATTGATCGACTGATCTGTTGCTCCCCGCTTCCGGAGTCACCTAGTGCAG	8400 fluorescence intensity (a.u.)

Sequence	binding signal
CGCCACCACCAACCGATTCAGGCCGCGCACGCCATTAATGCGGAGTCACCTAGTGCAG	9750 fluorescence intensity (a.u.)
ACAGTCCCACACCCTCGCCGCACCCGTTTCCGACGGCGATCGGAGTCACCTAGTGCAG	10900 fluorescence intensity (a.u.)
CAAATAAAACCCCTTTGCCTGTTAGCTTCGGCCACTCTCACGGAGTCACCTAGTGCAG	8240 fluorescence intensity (a.u.)
TCCGTTTACATTCGTTACACTACAACTTTTTCCTTGTTATCGGAGTCACCTAGTGCAG	9360 fluorescence intensity (a.u.)
CTATATCACCTAATCTTTGACATGTATTTCTTTTTTATGACGGAGTCACCTAGTGCAG	8410 fluorescence intensity (a.u.)
GTCTCCGTCTCCGTCCTCTCTCGCTTCCGTACTACTCCACCGGAGTCACCTAGTGCAG	10600 fluorescence intensity (a.u.)
GTACATGGCACAGCTCTCTCATTCCGGTTCCTACCAAACCCGGAGTCACCTAGTGCAG	9110 fluorescence intensity (a.u.)
TTTTAGAATTGGATCTTGTGGGGTTGAAATTTTAATTTATCGGAGTCACCTAGTGCAG	9180 fluorescence intensity (a.u.)
AATCGTGGATGGGGAATCGGTGACGCGCGGGTGGGGCGACCGGAGTCACCTAGTGCAG	8360 fluorescence intensity (a.u.)
AGCGCCCCGTTGCCGCAGCTGCTGCTCCCTCTGCTGCTTCCGGAGTCACCTAGTGCAG	10900 fluorescence intensity (a.u.)
TCCGTTGACTCCTACCTCCTTACACTCGGCTTACCTCTCTCGGAGTCACCTAGTGCAG	16300 fluorescence intensity (a.u.)
AAATGGGGAGGAGTGCGGATGACATGTGGGTCCCACAAATCGGAGTCACCTAGTGCAG	8410 fluorescence intensity (a.u.)
GGGGTTTGTCTAAAATTCGAGCTTGGTTTGCTTCCGGTTTCGGAGTCACCTAGTGCAG	13400 fluorescence intensity (a.u.)
CAATCATCAGCCACGTCCGCCGCCGCTTCAGCTGGATCGGCGGAGTCACCTAGTGCAG	8220 fluorescence intensity (a.u.)
TCATCAGTTCACAAATTAAGTCGTTATTTCGTTTCGTTTCCGGAGTCACCTAGTGCAG	9350 fluorescence intensity (a.u.)
TAGATGGGCACTCCGCCACTCCGTAGTTCAGTTGTACCATCGGAGTCACCTAGTGCAG	8290 fluorescence intensity (a.u.)
TGCTCTGAACTCCCAACCGTCCCAACCGACGCCGGCCATCCGGAGTCACCTAGTGCAG	8090 fluorescence intensity (a.u.)
CGCTCATCCTCTTGCTTTTTGCTTGCCGTGGCGAACGTCGCGGAGTCACCTAGTGCAG	10900 fluorescence intensity (a.u.)
CATATTCTTAATGGGGTATCTGTCGGGTTCAAATGTAGAACGGAGTCACCTAGTGCAG	10900 fluorescence intensity (a.u.)
CCTCTTCTGTACCCTACTCTCTCGCTCCCTTCCGATTTCCCGGAGTCACCTAGTGCAG	9450 fluorescence intensity (a.u.)
TCCATCGATCGGTTTGGTCCCCGCCAATCACCCCAACCATCGGAGTCACCTAGTGCAG	9830 fluorescence intensity (a.u.)
